This is a selection; strong and weak results do not stand in their true shares. The calls were merged from several studies; some rest on single wells. The list shows a part of the results.
Key:
Conditions in all cases: stereoisomer not certain
O2T11 = tested on: T1, O2T11
T1 sequence (whole entry): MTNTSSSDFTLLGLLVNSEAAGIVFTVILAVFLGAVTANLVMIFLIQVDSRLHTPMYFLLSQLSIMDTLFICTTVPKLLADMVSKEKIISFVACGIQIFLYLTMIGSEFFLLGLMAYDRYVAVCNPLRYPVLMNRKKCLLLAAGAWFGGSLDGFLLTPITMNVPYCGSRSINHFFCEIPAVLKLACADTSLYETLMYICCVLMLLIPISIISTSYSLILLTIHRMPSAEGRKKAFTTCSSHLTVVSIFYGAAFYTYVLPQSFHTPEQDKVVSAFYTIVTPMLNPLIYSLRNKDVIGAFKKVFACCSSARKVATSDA
Summary of the method: (§1)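 Each receptor–molecule pair is labelled responsive or non-responsive (inactive) according to whether the original authors judged the measured signal statistically different from baseline. The data were taken from the main text and supplementary material of published papers and checked for typos and inconsistencies. Assay methods differed by source, with transient luciferase assays in mammalian cell lines being common.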

Chains of the proteins cited; added tags and fusions are not shown. Chains listed by the source or under a name are the forms on record and can include a tag or linker.
O4A15, as listed by the source: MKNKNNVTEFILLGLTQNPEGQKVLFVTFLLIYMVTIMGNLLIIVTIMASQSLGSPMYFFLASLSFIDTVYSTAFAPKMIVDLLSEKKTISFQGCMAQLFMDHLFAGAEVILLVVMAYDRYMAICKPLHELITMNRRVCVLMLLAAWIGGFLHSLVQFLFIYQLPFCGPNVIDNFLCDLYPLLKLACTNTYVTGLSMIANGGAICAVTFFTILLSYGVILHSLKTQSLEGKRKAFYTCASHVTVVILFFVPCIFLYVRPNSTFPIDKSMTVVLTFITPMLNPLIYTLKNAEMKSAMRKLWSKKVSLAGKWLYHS
O4C46, as listed by the source: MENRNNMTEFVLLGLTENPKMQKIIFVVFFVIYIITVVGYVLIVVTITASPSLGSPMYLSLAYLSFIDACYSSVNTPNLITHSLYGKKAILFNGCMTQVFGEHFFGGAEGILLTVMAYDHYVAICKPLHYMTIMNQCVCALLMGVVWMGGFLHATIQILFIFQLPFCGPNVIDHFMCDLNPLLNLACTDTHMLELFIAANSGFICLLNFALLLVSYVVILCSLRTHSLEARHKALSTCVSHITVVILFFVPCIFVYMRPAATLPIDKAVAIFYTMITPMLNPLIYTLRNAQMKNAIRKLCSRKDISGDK

O2T29 [1] = tested on: T2, O2T29
T2 sequence (whole entry): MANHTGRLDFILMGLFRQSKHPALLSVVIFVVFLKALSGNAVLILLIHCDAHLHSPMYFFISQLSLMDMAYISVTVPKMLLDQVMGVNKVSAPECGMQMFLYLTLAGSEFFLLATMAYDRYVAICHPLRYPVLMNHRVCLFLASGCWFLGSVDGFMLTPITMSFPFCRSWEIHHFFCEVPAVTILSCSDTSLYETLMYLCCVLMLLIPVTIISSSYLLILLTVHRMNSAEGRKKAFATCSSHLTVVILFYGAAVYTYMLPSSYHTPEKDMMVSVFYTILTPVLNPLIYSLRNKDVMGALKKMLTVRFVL
Summary of the method: as §1

O2T29 [2] = tested on: T3, O2T29; remark: listed apart in the source
T3 sequence (whole entry): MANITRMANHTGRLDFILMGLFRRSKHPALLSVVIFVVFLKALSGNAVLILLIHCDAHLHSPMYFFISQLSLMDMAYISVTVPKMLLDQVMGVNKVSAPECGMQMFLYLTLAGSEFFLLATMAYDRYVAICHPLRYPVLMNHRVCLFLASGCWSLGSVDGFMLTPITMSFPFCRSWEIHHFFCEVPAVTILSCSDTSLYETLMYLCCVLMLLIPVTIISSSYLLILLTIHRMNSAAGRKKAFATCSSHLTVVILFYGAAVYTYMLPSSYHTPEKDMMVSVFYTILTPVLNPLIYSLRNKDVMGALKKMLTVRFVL
Summary of the method: as §1

O2T33 = tested on: T4, O2T33
T4 sequence (whole entry): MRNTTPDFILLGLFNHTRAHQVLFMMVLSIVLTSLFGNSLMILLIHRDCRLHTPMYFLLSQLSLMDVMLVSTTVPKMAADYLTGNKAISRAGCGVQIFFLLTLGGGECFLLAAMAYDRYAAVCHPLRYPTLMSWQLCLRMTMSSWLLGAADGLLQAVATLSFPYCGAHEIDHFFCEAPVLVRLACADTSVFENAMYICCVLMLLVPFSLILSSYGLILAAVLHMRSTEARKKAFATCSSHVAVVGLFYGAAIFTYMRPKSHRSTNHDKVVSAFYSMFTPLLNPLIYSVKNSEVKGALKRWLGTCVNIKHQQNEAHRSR
Summary of the method: as §1

O2T34 = tested on: T5, O2T34
T5 sequence (whole entry): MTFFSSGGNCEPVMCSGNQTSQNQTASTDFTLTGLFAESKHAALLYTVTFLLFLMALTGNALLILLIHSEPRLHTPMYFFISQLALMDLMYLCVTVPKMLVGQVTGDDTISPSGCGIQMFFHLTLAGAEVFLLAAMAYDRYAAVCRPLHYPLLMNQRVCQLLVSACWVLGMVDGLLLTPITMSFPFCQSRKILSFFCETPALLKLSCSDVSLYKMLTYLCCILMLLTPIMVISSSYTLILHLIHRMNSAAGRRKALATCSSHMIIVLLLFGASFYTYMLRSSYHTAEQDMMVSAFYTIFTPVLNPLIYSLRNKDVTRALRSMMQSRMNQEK
Summary of the method: as §1

O2T35 = tested on: T6, O2T35
T6 sequence (whole entry): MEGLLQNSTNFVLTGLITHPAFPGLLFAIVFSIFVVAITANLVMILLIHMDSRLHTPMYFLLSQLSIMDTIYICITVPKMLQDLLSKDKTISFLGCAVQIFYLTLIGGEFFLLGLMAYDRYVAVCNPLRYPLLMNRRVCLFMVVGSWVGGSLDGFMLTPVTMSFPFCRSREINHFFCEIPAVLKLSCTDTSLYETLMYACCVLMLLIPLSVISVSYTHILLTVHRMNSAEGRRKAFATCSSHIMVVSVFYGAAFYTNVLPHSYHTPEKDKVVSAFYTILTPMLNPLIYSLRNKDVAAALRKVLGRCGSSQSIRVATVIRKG
Summary of the method: as §1

O4A15 = tested on: O4A15
Summary of the method: as §1

O4A47 = tested on: T7, O4A47
T7 sequence (whole entry): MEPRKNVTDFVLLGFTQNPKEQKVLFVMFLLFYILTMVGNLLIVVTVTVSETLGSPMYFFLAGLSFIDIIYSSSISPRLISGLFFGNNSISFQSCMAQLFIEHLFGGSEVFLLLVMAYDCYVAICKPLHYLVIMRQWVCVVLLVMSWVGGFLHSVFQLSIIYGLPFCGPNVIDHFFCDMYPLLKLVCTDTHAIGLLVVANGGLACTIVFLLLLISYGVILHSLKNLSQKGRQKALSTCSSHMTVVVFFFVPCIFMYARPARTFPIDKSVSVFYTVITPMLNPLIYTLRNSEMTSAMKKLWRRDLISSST
Summary of the method: as §1

O4C46 = tested on: O4C46
Summary of the method: as §1

O4F17 = tested on: T8, O4F17
T8 sequence (whole entry): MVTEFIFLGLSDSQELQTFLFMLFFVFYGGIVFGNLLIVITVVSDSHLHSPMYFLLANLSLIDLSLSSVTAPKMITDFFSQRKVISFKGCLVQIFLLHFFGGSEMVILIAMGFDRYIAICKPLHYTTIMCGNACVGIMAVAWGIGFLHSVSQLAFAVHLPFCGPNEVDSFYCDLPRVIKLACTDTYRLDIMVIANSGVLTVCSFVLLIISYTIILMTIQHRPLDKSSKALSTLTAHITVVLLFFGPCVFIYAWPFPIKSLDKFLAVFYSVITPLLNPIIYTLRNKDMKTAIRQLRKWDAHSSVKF
Summary of the method: as §1
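Note: active if original authors judged signal statistically different from baseline.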

SMILES	odorant receptor agonist call (O2T11)	odorant receptor agonist call (O2T29 [1])	odorant receptor agonist call (O2T29 [2])	odorant receptor agonist call (O2T33)	odorant receptor agonist call (O2T34)	odorant receptor agonist call (O2T35)	odorant receptor agonist call (O4A15)	odorant receptor agonist call (O4A47)	odorant receptor agonist call (O4C46)	odorant receptor agonist call (O4F17)
c1ccc(Oc2ccccc2)cc1	inactive	inactive	inactive	inactive	inactive	inactive	inactive	inactive	inactive	inactive
COc1cc(C)ccc1O	inactive	inactive	inactive	inactive	inactive	inactive	inactive	inactive	inactive	inactive
O=CCc1ccccc1	inactive	inactive	inactive	inactive	inactive	active	inactive	active	inactive	inactive
CCCCCCCC=O	inactive	inactive	inactive	active	inactive	inactive	inactive	inactive	inactive	inactive
CC(C)CC(=O)O	inactive	inactive	inactive	inactive	inactive	inactive	inactive	inactive	inactive	inactive
COc1ccccc1O	inactive	inactive	inactive	inactive	inactive	inactive	inactive	inactive	inactive	inactive
CCCCCCCCOC(C)=O	inactive	inactive	inactive	inactive	inactive	inactive	inactive	inactive	inactive	inactive
CC1CCC(C(C)C)C(O)C1 (stereo not given)	inactive	active	inactive	inactive	inactive	active	inactive	inactive	active	inactive
CC12CCC(CC1)C(C)(C)O2	inactive	inactive	inactive	inactive	inactive	inactive	inactive	inactive	inactive	inactive
CC(C)CCC(=O)O	inactive	inactive	inactive	inactive	inactive	inactive	inactive	inactive	inactive	inactive
CC12CCC(C1)C(C)(C)C2=O (stereo not given)	inactive	inactive	inactive	inactive	inactive	inactive	inactive	inactive	inactive	inactive
CCC1(O)C2(C)CCC(C2)C1(C)C (stereo not given)	inactive	inactive	inactive	inactive	inactive	inactive	inactive	inactive	inactive	inactive
CC(=O)OC(C)(C)C1CC=C(C)CC1 (stereo not given)	inactive	inactive	inactive	inactive	inactive	inactive	inactive	inactive	inactive	inactive
O=C1CCCCCCCCCCCC(=O)OCCO1	inactive	inactive	inactive	active	inactive	active	inactive	inactive	inactive	inactive
C=CCSCC=C	inactive	inactive	inactive	inactive	inactive	inactive	inactive	inactive	inactive	inactive
CC12C=CCC1C1CCC3CC(=O)CCC3(C)C1CC2 (stereo not given)	inactive	inactive	inactive	inactive	inactive	inactive	active	inactive	inactive	active
CCCC(=O)O	inactive	inactive	inactive	inactive	inactive	inactive	inactive	inactive	inactive	inactive
COc1cc(C=O)ccc1O	inactive	inactive	inactive	inactive	inactive	active	inactive	inactive	inactive	inactive
CC(C)C(=O)O	inactive	inactive	inactive	inactive	inactive	inactive	inactive	inactive	inactive	inactive
CC=Cc1ccc(O)c(OC)c1	inactive	inactive	inactive	active	inactive	inactive	inactive	active	inactive	inactive
COC(=O)c1ccccc1O	inactive	inactive	inactive	inactive	inactive	inactive	inactive	inactive	inactive	inactive
CC(C)(C)c1ccc(CCC=O)cc1	inactive	inactive	inactive	inactive	inactive	inactive	inactive	inactive	inactive	inactive
CC1COCc2cc3c(cc21)C(C)(C)C(C)C3(C)C (stereo not given)	inactive	inactive	active	active	active	inactive	inactive	active	active	active
CCCCCCCOC(C)=O	inactive	inactive	inactive	inactive	inactive	inactive	inactive	inactive	inactive	inactive
CC(=O)C(C)=O	inactive	inactive	inactive	inactive	inactive	inactive	inactive	inactive	inactive	inactive
CCCCCCOC(=O)CCC	inactive	inactive	inactive	inactive	inactive	inactive	inactive	inactive	inactive	inactive

Some values from the entries so far.
CC(=O)OC(C)(C)C1CC=C(C)CC1 (stereo not given) | odorant receptor agonist call (O2T35): inactive
O=C1CCCCCCCCCCCC(=O)OCCO1 | odorant receptor agonist call (O4F17): inactive
CC(=O)C(C)=O | odorant receptor agonist call (O2T11): inactive

(listing goes on)

SMILES	odorant receptor agonist call (O2T11)	odorant receptor agonist call (O2T29 [1])	odorant receptor agonist call (O2T29 [2])	odorant receptor agonist call (O2T33)	odorant receptor agonist call (O2T34)	odorant receptor agonist call (O2T35)	odorant receptor agonist call (O4A15)	odorant receptor agonist call (O4A47)	odorant receptor agonist call (O4C46)	odorant receptor agonist call (O4F17)
COC(=O)c1ccccc1	active	–	active	–	active	–	inactive	–	inactive	inactive
CCCCO	inactive	inactive	inactive	inactive	inactive	inactive	inactive	inactive	inactive	inactive
C=C(C)C1CCC2=CC(=O)CC(C)C2(C)C1 (stereo not given)	–	–	–	active	–	active	–	inactive	–	–
CCC=CCCO	inactive	inactive	inactive	inactive	inactive	inactive	inactive	inactive	inactive	inactive
CCCCCC(=O)O	inactive	inactive	inactive	inactive	inactive	inactive	inactive	inactive	inactive	inactive
C=CCc1ccc(OC(C)=O)c(OC)c1	inactive	inactive	inactive	active	inactive	active	inactive	active	inactive	inactive
CCCCCOC(C)=O	active	–	inactive	inactive	active	active	inactive	inactive	inactive	inactive
CC1=CCC(C(C)(C)O)CC1 (stereo not given)	inactive	inactive	inactive	inactive	inactive	inactive	inactive	inactive	inactive	inactive
CCCCCC(C)=O	inactive	–	inactive	–	inactive	–	inactive	–	inactive	inactive
C=CCc1ccc(OC)c(OC)c1	inactive	inactive	inactive	inactive	inactive	inactive	inactive	inactive	inactive	inactive
CC(=O)OCC=C(C)CCC=C(C)C	inactive	inactive	inactive	active	inactive	active	inactive	inactive	inactive	inactive
CC(C)=CCCC(C)=CC=O	inactive	inactive	inactive	active	inactive	inactive	inactive	inactive	inactive	inactive
CCCCCCCCCCC=O	inactive	inactive	inactive	inactive	inactive	active	inactive	inactive	inactive	inactive
CCCCCCCCCC=O	inactive	inactive	inactive	inactive	inactive	inactive	inactive	inactive	inactive	inactive
CCCCCCCC=CC=O	inactive	inactive	active	inactive	active	inactive	inactive	inactive	inactive	inactive
C=CC(C)(O)CCC=C(C)C (stereo not given)	inactive	inactive	inactive	inactive	inactive	inactive	inactive	inactive	inactive	inactive
CC1=NC(C)SC1C (stereo not given)	inactive	–	inactive	–	inactive	–	inactive	–	inactive	inactive
CC(=O)c1ccccc1	inactive	–	inactive	–	inactive	–	inactive	–	inactive	inactive
O=C1CCCCCCCCCCCCCCO1	inactive	inactive	inactive	inactive	inactive	inactive	inactive	inactive	inactive	inactive
c1cnccn1	inactive	inactive	inactive	inactive	inactive	inactive	inactive	inactive	inactive	inactive
CC12C=CCC1C1CCC3=CC(=O)CCC3(C)C1CC2 (stereo not given)	inactive	inactive	inactive	inactive	inactive	active	inactive	inactive	inactive	inactive
CC(=O)OC1CC2CCC1(C)C2(C)C (stereo not given)	inactive	inactive	inactive	inactive	inactive	inactive	inactive	inactive	inactive	inactive
CC(C)C=O	inactive	inactive	inactive	inactive	inactive	inactive	inactive	inactive	inactive	inactive
O=C1CCCCC1	inactive	–	inactive	–	inactive	–	inactive	–	inactive	inactive
CC(C)(O)CCCC1=CCC(C=O)CC1 (stereo not given)	–	–	–	inactive	–	inactive	–	inactive	–	–

Reference: the M2OR odorant receptor database
